Measured data: PubChem BioAssay AID1259308 (NCATS, 2017)
Shown is one part, drawn at random, of about 59,000 deposited reagents. Over the whole deposit, about 1,510 (2.6%) were called active. 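Calls use total luciferase alone and ignore viability, so some active siRNAs may act by altering cell number.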 The numbers tell different reagents against one gene apart. Further read-outs or replicates are left out here.

- Purpose: 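Candidate targets for better recombinant protein yield in mammalian cells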 (primary screen)
- Cells: human HEK293 embryonic kidney cells stably expressing firefly luciferase (HEK-CMV-Luc2-Hygro)
- Knock-down reagent: single siRNA against human genes, 0.8 pmol siRNA per well
- Timing: 72 h
- Detection: 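Luciferase light (ONE-Glo) measured on one replicate plate set and viability (CellTiter-Glo) on the other, scaled to a negative control siRNA, with robust z-scores and luciferase per cell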
- Scale: total luciferase, z-score and total luciferase, % of control: higher = more reporter protein produced; luciferase per cell, z-score: higher = more reporter output per viable cell
- Rule for the call: 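An siRNA counts as active if its total luciferase robust z-score exceeds 3; genes with two or more such siRNAs out of three were retested with fresh siRNAs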
- Calls: active = raised luciferase; inactive = no rise

no.	Gene	reagent	total luciferase, z-score	total luciferase, % of control	luciferase per cell, z-score	outcome
1	H2AZ1	1	0.172	85.3	0.119	inactive
2	H2AZ1	2	1.46	111	1.13	inactive
3	H2AZ1	3	-0.587	70.2	-0.692	inactive
4	GOLGA8B	1	1.25	107	0.603	inactive
5	GOLGA8B	2	-0.654	68.9	-0.117	inactive
6	GOLGA8B	3	1.22	106	0.56	inactive
7	SIGMAR1	1	2.05	123	2.51	inactive
8	SIGMAR1	2	1.02	102	4.94	inactive
9	SIGMAR1	3	4.6	173	3.09	active
10	TAPBPL	1	0.153	84.9	0.72	inactive
11	TAPBPL	2	0.401	89.9	0.412	inactive
12	TAPBPL	3	-0.188	78.1	-0.0116	inactive
13	HPX	1	-1.88	44.5	-0.466	inactive
14	HPX	2	-0.698	68	-0.948	inactive
15	HPX	3	0.298	87.8	1.23	inactive
16	RPS7P4	1	-0.482	72.3	-0.509	inactive
17	RPS7P4	2	0.385	89.5	0.172	inactive
18	RPS7P4	3	-2.14	39.4	-1.9	inactive
19	TMEM54	1	1.7	116	1.96	inactive
20	TMEM54	2	0.00276	81.9	0.0545	inactive
21	TMEM54	3	-1.36	54.9	-1.74	inactive
22	GYG2	1	2.07	123	1.41	inactive
23	GYG2	2	-0.118	79.5	-0.557	inactive
24	GYG2	3	0.304	87.9	-0.342	inactive

Records listed so far whose target name starts with R or r:
Gene	reagent	total luciferase, z-score	total luciferase, % of control	luciferase per cell, z-score	outcome
RPS7P4	1	-0.482	72.3	-0.509	inactive
RPS7P4	2	0.385	89.5	0.172	inactive
RPS7P4	3	-2.14	39.4	-1.9	inactive
